The source of these data is patent US20200246284A1 (Academia Sinica, priority 2015, published 2020).

For this data set, the system named is MCL line JEKO-1. Nature of the data set: Therapeutic window vs normal tissues (Table 27).

For the molecule `N.N.[Cl][Pt][Cl]` [Cisplatin], the “therapeutic window (TW)” value is reported as 50 fold (endothelium vs JEKO-1); 1.6-8.0 (epithelium and mesenchyme vs JEKO-1).
